Assay [1] concerns the target eGFP:Nup153 (UniProt P49790). The assay is described as follows: co-IP.
For assay [2], the target named is Nup153 (human (endogenous in Jurkat and HEK293T)) (UniProt P49790). The assay is described as follows: proximity ligation.
Assay [3] deals with T1, Histidine-tagged AQR (UniProt O60306).
T1 sequence: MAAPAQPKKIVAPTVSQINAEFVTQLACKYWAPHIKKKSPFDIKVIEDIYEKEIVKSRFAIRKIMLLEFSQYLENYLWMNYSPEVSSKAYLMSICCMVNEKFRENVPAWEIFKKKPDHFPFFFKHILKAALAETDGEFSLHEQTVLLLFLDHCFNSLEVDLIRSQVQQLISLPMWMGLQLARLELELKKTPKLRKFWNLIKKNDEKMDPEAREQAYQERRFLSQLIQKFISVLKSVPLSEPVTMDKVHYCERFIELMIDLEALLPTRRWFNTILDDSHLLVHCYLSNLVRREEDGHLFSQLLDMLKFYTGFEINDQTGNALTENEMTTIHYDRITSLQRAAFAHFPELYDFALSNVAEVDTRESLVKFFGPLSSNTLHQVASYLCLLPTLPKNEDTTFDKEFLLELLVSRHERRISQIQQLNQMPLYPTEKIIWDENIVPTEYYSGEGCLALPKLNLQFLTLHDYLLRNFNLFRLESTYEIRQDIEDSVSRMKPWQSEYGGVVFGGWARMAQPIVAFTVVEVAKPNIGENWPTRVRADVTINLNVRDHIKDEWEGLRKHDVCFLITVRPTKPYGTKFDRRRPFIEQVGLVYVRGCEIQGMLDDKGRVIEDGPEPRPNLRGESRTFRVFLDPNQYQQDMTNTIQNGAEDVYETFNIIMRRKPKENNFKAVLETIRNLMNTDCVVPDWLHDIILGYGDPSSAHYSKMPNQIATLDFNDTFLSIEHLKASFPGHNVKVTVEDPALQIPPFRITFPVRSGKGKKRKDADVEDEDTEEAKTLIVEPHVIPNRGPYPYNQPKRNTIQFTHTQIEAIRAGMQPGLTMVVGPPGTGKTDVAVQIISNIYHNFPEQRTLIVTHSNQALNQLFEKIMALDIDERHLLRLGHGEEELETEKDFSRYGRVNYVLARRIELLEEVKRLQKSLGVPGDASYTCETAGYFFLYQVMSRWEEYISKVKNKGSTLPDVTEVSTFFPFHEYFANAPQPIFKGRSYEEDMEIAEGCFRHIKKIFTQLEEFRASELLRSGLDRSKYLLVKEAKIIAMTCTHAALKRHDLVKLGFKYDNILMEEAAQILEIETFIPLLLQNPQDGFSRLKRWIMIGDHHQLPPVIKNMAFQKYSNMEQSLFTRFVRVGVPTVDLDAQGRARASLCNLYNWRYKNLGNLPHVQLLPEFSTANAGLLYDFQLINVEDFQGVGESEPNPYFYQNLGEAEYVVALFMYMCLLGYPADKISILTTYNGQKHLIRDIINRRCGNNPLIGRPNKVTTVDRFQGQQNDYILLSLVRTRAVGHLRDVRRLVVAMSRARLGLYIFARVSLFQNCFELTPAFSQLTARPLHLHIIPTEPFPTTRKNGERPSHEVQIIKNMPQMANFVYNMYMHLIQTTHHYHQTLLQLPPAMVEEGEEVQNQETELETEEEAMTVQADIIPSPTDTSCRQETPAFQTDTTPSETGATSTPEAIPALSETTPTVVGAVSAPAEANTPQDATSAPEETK
The assay is described as follows: pull-down.

The chains behind the UniProt entries cited, without tags or fusion partners. Residues count along the entry.
UniProt P49790: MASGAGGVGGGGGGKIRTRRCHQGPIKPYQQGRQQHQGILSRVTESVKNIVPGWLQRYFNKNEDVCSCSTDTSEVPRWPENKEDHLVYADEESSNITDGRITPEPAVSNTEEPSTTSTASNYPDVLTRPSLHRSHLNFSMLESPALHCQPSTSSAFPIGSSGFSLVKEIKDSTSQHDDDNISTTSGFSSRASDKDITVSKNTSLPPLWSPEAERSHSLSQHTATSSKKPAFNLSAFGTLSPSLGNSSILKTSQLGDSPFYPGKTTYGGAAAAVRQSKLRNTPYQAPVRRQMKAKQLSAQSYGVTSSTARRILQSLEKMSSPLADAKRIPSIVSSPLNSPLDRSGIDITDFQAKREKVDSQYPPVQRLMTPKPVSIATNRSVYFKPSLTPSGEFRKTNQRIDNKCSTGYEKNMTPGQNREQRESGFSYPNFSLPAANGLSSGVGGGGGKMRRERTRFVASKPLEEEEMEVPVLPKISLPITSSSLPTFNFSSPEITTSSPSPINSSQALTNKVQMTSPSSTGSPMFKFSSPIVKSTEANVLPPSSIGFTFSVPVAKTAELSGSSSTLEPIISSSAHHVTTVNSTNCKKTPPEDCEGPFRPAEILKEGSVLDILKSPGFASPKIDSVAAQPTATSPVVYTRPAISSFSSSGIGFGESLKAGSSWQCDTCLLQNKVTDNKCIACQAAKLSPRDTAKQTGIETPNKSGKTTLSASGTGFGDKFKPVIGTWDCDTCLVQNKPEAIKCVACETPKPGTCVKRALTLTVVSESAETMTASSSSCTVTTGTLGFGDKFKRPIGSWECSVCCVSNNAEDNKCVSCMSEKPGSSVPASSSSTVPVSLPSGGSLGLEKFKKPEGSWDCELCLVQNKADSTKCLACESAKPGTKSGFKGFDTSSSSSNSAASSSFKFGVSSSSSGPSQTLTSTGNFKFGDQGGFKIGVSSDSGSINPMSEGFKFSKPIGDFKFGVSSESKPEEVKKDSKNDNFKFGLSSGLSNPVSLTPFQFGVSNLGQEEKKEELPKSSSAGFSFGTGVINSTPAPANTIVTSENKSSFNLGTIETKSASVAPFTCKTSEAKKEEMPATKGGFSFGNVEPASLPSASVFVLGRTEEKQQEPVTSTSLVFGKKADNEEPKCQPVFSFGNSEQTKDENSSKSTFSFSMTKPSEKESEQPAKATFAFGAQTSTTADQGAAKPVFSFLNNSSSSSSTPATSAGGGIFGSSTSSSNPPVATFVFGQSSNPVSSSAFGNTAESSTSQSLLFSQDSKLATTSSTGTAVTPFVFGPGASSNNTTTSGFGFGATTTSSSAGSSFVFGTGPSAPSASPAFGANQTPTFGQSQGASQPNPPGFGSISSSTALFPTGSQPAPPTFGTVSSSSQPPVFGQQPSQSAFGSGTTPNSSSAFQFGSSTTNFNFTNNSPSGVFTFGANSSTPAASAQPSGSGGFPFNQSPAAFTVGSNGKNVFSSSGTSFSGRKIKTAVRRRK
UniProt P52948, residues 1-880: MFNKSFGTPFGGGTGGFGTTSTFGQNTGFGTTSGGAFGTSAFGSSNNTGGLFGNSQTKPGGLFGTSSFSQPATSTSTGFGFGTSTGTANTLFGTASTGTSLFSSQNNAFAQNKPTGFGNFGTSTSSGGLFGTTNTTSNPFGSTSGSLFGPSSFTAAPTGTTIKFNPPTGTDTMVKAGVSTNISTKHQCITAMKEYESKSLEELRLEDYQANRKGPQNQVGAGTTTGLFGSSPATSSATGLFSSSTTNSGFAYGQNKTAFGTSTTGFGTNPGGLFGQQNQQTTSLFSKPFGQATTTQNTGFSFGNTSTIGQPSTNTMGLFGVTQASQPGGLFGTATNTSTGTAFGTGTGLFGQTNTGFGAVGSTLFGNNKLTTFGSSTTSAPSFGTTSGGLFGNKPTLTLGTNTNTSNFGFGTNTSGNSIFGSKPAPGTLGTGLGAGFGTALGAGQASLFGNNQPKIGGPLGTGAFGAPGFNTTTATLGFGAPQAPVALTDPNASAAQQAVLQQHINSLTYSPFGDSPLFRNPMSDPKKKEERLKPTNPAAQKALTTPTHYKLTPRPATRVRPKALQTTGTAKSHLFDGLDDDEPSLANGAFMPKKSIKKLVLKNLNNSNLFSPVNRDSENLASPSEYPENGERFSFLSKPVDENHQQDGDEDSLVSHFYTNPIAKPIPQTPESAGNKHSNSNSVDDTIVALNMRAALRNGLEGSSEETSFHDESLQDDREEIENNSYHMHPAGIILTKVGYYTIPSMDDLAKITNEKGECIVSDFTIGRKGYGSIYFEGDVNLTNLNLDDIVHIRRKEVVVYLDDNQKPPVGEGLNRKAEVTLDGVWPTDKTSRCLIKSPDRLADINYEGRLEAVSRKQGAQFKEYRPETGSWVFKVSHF
UniProt P12270: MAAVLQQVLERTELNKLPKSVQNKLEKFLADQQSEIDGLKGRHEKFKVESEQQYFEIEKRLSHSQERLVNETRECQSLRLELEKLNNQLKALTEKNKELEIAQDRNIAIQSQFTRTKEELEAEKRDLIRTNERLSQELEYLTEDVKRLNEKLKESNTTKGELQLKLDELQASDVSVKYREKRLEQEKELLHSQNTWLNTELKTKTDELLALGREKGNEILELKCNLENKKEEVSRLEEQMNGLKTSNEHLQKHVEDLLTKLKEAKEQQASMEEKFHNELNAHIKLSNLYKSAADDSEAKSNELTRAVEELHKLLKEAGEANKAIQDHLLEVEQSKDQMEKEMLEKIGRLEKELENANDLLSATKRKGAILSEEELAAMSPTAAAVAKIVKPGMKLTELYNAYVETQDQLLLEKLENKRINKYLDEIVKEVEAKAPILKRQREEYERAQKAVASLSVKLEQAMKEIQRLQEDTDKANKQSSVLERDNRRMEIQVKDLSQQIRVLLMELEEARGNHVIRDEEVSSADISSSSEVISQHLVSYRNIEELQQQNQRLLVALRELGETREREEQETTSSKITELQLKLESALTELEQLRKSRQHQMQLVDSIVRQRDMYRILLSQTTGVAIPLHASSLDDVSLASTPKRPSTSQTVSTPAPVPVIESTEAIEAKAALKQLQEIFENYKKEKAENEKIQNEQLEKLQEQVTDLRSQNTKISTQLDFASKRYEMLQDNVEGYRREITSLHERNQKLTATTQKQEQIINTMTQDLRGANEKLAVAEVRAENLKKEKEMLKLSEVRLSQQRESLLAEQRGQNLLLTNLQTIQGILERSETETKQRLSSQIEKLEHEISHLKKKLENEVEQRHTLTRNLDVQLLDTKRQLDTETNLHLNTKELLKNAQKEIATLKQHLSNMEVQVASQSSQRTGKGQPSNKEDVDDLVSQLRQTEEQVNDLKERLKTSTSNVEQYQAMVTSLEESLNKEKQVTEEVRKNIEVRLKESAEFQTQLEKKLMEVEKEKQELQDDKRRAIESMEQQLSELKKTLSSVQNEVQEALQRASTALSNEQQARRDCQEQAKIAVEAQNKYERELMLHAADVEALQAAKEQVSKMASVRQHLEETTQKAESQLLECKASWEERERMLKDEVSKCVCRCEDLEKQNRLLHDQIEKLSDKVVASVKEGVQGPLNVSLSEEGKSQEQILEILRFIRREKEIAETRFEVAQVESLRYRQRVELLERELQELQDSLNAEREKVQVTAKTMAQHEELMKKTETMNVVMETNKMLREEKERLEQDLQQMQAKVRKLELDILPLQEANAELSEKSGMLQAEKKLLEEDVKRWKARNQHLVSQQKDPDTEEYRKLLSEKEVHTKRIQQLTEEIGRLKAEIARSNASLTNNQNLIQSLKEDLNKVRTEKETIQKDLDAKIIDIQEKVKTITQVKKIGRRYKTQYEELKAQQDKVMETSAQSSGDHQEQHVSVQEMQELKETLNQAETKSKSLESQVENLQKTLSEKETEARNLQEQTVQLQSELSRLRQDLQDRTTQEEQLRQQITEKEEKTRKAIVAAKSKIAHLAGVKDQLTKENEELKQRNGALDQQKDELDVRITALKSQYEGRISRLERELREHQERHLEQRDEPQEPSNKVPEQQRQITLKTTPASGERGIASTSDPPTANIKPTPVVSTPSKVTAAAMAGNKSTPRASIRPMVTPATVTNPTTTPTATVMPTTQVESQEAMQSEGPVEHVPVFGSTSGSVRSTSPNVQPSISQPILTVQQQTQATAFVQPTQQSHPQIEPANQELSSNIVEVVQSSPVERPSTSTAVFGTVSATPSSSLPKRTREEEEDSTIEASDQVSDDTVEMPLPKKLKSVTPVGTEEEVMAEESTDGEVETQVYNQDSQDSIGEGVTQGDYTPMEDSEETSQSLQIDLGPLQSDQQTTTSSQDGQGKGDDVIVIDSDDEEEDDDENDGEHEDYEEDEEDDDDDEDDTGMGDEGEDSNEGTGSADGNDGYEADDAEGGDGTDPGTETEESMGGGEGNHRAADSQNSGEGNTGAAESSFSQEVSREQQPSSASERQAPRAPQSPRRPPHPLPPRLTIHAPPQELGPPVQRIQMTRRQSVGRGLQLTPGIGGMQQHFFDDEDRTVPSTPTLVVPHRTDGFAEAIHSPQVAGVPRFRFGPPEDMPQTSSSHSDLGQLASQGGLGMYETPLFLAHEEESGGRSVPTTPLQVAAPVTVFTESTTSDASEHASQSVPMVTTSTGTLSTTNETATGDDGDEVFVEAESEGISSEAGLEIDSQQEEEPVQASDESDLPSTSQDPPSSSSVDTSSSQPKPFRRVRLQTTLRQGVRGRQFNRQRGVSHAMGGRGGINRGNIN
UniProt Q9UNP9: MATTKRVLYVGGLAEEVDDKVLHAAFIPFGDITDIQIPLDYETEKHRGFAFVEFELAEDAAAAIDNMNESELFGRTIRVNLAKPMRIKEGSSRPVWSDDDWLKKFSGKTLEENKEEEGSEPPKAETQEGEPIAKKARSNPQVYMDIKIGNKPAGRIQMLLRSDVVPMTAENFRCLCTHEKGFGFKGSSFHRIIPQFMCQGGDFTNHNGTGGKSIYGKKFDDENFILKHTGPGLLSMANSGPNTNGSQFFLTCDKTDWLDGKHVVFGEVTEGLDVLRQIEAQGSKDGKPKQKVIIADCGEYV
UniProt Q13838: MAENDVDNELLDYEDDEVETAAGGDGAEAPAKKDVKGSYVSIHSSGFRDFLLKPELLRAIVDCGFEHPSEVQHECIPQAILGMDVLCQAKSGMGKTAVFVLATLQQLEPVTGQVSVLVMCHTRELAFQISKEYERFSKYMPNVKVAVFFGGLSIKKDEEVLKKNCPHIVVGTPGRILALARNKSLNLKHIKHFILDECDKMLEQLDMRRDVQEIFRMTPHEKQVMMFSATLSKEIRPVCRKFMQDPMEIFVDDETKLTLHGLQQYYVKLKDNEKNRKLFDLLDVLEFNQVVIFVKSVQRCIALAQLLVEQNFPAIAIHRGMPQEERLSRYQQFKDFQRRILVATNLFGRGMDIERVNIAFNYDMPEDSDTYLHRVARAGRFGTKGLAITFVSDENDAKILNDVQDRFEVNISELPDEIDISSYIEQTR
UniProt P29590: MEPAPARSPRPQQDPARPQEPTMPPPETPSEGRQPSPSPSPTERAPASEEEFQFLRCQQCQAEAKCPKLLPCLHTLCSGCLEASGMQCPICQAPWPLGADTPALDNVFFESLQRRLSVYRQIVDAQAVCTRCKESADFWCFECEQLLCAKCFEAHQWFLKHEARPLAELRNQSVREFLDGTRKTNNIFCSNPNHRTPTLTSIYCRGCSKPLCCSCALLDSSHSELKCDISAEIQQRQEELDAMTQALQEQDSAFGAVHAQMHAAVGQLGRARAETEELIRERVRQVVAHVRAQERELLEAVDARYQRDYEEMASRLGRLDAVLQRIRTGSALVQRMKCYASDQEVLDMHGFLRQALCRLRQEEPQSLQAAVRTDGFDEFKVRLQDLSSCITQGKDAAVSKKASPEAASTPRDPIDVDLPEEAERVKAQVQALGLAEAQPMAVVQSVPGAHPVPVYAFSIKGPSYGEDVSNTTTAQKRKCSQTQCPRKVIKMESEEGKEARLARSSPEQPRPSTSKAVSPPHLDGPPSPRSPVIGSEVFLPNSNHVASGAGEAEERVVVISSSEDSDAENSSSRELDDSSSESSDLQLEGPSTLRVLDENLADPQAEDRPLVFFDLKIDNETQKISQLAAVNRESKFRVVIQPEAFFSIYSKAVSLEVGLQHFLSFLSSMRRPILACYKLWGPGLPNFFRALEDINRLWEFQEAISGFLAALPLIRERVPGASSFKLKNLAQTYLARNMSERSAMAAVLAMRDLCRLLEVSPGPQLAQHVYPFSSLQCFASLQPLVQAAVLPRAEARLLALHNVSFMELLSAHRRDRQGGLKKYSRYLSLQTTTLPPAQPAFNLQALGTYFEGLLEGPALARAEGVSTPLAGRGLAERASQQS

For assay [4], the target named is Nup98 (human (endogenous in Jurkat)) (UniProt P52948). The assay is described as follows: proximity ligation.
Assay [5] has as its target TPR (human (endogenous in Jurkat)) (UniProt P12270). The assay is described as follows: proximity ligation.

No constants are given. Whether binding was seen depends on the method and setting. In cells and extracts the contact can be indirect. Some results given as binding are weak or reduced against the parent protein; the word gives no strength. For some of these results: Tags and fused reporters may be left off the sequences shown.

Consider PPIE (from UniProt Q9UNP9 1-301), for which, in assay [1], the binding result is reported as “binds”.

TPR (from UniProt P12270 1-2363): the binding entry in assay [2] is “binds”. For the substance “eGFP:Nup153 (from UniProt P49790 1-1475)”, in assay [3], the binding entry is recorded as “binds”. Regarding DDX39b (from UniProt Q13838 1-428), the binding result in assay [2], in assay [4] and in assay [1] was “binds” each time.

Take PML (from UniProt P29590 1-882): in assay [5], the binding entry was “no binding”.
